{"source": "patent US6251861A", "about": "“Treatment of cerebral infarction using cyclic hexapeptides” (Takeda Chemical Industries, Ltd., priority 1996, dated 2001)", "key": {"[1]": {"test_system": "total brain infarct models (gerbils, bilateral common carotid arteries occluded for 15 minutes)", "assay": "Total brain infarct model, survival (Test Example 1)", "type": "in vivo, gerbil", "settings": "3 mg/kg subcutaneously twice (60 min before obstruction, 60 min after reperfusion), n=10, vehicle group 0%, p<0.01"}, "[2]": {"test_system": "regional brain infarct models (Wistar rats)", "assay": "Regional brain infarct model, middle cerebral artery obstruction-reperfusion (Test Example 3)", "type": "in vivo, Wistar rat", "settings": "3 mg/kg i.v. 7 times, 3 days after reperfusion"}}, "note": "Where a name gives a salt, the structure may show the parent alone. At least one peptide structure holds a part that was inferred or is arguable (an end, a ring closure or a residue). Where a SMILES comes first, the peptide text is derived from it."}
{"smiles": "CC(C)C[C@@H]1NC(=O)[C@@H](c2cccs2)NC(=O)[C@H](CC(=O)O)NC(=O)[C@H](CC(=O)N2CCN(c3ccccc3)CC2)NC(=O)[C@@H](CC(=O)O)NC(=O)[C@@H](Cc2c[nH]c3ccccc23)NC1=O", "note": "[compound 1, Cyclo[D-α-aspartyl-3-[(4-phenylpiperazin-1-yl)carbonyl]-L-aspartyl-L-α-aspartyl-D-2-(2-thienyl)glycyl-L-leucyl-D-tryptophyl] disodium salt] (HELM PEPTIDE1{D.D.[O=C([C@H](N[*:1])c1cccs1)[*:2]].L.[dW].[dD]}|CHEM1{[c1ccc(N2CCN([*:1])CC2)cc1]}$PEPTIDE1,CHEM1,1:R3-1:R1|PEPTIDE1,PEPTIDE1,1:R1-6:R2$$$V2.0)", "values": [{"measurement": "survival rate at 8 hours after reperfusion", "setting": "[1]", "result": 80, "unit": "%"}, {"measurement": "fractional brain infarct area, section No. 7", "setting": "[2]; mean ± SE, n=16, vehicle 0.00 ± 0.00", "result": "0.00 ± 0.00", "unit": "%"}, {"measurement": "fractional brain infarct area, section No. 6", "setting": "[2]; mean ± SE, n=16, vehicle 1.67 ± 0.64, p = 0.611", "result": "1.33 ± 0.88", "unit": "%"}, {"measurement": "fractional brain infarct area, section No. 5", "setting": "[2]; mean ± SE, n=16, vehicle 8.97 ± 1.90, p = 0.382", "result": "6.77 ± 1.96", "unit": "%"}, {"measurement": "fractional brain infarct area, section No. 1", "setting": "[2]; mean ± SE, n=16, vehicle 29.13 ± 6.70, p = 0.606", "result": "23.76 ± 7.70", "unit": "%"}, {"measurement": "fractional brain infarct area, section No. 2", "setting": "[2]; mean ± SE, n=16, vehicle 37.50 ± 3.82, p = 0.063", "result": "24.78 ± 6.20", "unit": "%"}, {"measurement": "fractional brain infarct area, section No. 4", "setting": "[2]; mean ± SE, n=16, vehicle 41.87 ± 3.11, p = 0.061", "result": "31.62 ± 5.06", "unit": "%"}, {"measurement": "fractional brain infarct area, section No. 3", "setting": "[2]; mean ± SE, n=16, vehicle 44.93 ± 3.69, p = 0.039", "result": "33.08 ± 5.41", "unit": "%"}, {"measurement": "fractional total brain infarct volume", "setting": "[2]; n=16, vehicle 22.14±2.08%, p=0.071", "result": "13.84±2.13", "unit": "%"}]}
